The text below walks through data of PMC6049948.

For this experiment, the target named is T1, GFP-Bucky ball (zebrafish) (UniProt H0WFA5).
T1 sequence: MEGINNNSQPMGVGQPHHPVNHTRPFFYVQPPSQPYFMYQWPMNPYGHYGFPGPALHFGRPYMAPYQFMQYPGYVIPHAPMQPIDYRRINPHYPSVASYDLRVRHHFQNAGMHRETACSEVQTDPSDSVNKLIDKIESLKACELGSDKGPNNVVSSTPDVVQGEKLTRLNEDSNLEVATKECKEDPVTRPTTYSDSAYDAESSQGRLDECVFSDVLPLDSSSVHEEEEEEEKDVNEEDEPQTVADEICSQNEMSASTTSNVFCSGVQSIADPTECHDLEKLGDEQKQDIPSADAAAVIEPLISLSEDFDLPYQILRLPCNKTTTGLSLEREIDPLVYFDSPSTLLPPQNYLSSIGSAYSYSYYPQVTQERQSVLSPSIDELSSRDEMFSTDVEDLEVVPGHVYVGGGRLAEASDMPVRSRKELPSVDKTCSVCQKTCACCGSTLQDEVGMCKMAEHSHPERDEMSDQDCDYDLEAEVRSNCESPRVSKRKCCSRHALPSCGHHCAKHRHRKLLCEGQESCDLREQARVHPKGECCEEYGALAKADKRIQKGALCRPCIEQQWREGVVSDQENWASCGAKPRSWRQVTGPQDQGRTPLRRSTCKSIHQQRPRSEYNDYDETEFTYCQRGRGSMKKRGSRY
The experiment is described as follows: co-IP; HEK293 cells co-transfected with pCS3-MT-Rbpms constructs and pCS3-GFP-Buc (or pCS3-GFP control); IP from the supernatant of cell lysates (including mRNA) with anti-GFP 3E6 antibody and Protein G magnetic beads; blotted with anti-Myc and anti-GFP.

Results are given in words; binding and its absence hold for the method and conditions named. Binding seen in cells or lysates may run through a third protein. A result given as binding can be weak or reduced; the word gives no strength. Tags and fused reporters may be left off the sequences shown.

As to “Myc-tagged Rbpms2bΔC-terminus (zebrafish) (domain or fragment)”, the binding entry was “binds”.

Myc-tagged zebrafish Rbpms (Rbpms1): the binding result is on record as “binds”.

Take Myc-tagged zebrafish Rbpms2b: the binding entry is given as “binds”.

Consider Myc-tagged Rbpms2bΔRNP1 (zebrafish), for which the binding entry was “binds”.
